Results are given in words; binding and its absence hold for the method and conditions named. Binding seen in cells or lysates may run through a third protein. Some results given as binding are weak or reduced against the parent protein; the word gives no strength.
Molecular target: FLAG-tagged wild-type SipL (Clostridioides difficile) (UniProt Q181G7)
Assay: co-IP; FLAG-tagged SipL variants immunoprecipitated from cleared lysates of C. difficile sporulating for 24 h with anti-FLAG magnetic beads (Dynabead protein G), 2 h at room temperature; 50 mM Tris pH 7.5, 150 mM NaCl; eluted with FLAG peptide; SpoIVA detected by Western blot

Amino acid sequences for entries named in this document (tags omitted).
UniProt Q181G7: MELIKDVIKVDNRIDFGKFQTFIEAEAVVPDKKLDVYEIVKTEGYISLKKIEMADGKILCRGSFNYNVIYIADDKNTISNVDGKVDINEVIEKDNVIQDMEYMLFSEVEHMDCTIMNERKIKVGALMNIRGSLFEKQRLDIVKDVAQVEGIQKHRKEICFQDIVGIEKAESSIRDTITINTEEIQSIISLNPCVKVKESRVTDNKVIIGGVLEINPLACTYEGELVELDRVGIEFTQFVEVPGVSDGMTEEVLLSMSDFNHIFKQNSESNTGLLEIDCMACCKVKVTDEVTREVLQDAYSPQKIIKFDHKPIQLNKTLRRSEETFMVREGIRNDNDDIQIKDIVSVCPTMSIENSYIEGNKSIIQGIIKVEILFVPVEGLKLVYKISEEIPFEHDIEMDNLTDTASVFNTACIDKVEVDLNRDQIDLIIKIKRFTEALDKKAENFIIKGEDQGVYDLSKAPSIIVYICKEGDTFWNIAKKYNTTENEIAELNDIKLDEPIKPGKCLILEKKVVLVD
UniProt Q182W3: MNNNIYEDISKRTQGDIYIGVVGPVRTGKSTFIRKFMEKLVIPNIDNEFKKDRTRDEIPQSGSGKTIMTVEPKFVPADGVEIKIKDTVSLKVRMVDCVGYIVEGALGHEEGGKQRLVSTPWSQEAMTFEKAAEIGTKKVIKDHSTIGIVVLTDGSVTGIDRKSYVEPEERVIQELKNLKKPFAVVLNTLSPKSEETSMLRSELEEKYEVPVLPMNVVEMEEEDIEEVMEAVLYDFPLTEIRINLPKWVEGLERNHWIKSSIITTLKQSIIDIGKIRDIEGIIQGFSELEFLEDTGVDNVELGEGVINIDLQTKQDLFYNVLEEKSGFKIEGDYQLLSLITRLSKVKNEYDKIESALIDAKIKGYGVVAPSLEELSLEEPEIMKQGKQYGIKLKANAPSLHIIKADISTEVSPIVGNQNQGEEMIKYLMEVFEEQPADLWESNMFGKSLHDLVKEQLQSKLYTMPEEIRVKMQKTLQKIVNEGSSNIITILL

Q: “C. difficile SpoIVA (from UniProt Q182W3 1-491)” was tested. Which binding did it give?
A: Its binding is “binds”.

— paper PMC6436350
